# Values of other authors, collected in US7179616B1, “Method for detecting phosphatidylserine on the surface of cells” (University of Notre Dame du Lac, priority 2002, dated 2007).
# Tested on: membranes that are rich in PS
# Settings: cited from earlier work
substance,measurement,value
annexin V: 35 Kd PS-binding protein,extracellular Ca^2+ needed for complete membrane binding,up to 2.5 mM
